Results are given in words; binding and its absence hold for the method and conditions named. Binding seen in cells or lysates may run through a third protein. These calls come from enrichment with a bait or labelling near it, and not all partners need be listed. For some of these results: No binding means not detected with the bait.

Protein sequences, listed by entry. Tags and fused reporters are not part of them.
UniProt Q6P6C2: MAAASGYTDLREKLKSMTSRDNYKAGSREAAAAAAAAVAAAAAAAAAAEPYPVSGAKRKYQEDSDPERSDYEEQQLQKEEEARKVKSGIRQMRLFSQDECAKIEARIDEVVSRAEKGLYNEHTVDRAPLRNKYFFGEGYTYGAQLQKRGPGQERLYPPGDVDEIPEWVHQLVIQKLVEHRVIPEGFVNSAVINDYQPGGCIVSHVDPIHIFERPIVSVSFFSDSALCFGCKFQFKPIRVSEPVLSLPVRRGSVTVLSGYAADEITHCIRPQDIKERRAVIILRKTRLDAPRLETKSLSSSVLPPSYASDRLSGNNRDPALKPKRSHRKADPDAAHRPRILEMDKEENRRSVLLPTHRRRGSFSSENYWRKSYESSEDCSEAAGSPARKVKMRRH

Two molecules from PMC8565353 can be followed below.

The target in experiment [1] is ALKBH5-Strep II-HA (human) (UniProt Q6P6C2). Kind of experiment: affinity purification with mass spectrometry; Strep II-tagged bait captured on StrepTactinXT beads from 293T total lysate, 4 h at 4°C, with RNase inhibitor (-RNase A) or with 2 μg/ml RNase A; washes with 350 mM KCl; LC-MS/MS; against Strep II-eGFP control.
For experiment [2] the target is unchanged. Kind of experiment: affinity purification with mass spectrometry; as the Strep II-tag pull-down with LC-MS/MS, lysate supplemented with 2 μg/ml RNase A ('digested RNA' condition) only.
Experiment [3] concerns the target METTL3, N-terminal BirA* fusion (human), Q86U44. The experiment can be described thus: proximity labelling; BioID: BirA*-fused bait induced with 200 ng/ml dox in stable 293T cells, 50 μM biotin for 24 h, streptavidin bead purification of biotinylated proteins, LC-MS/MS; hits filtered by Limma (>4-fold, adjusted P < 0.01) and SAINT (score >0.74) against BirA* and NLS-BirA* controls. To be noted: remark: other sources report otherwise.

Experiment [4] deals with METTL3, C-terminal BirA* fusion (human), Q86U44. Described as above. To be noted: remark: other sources report otherwise.

B1: Acinus (protein, UniProt Q9UKV3 1-1341)
chain: MWRRKHPRTSGGTRGVLSGNRGVEYGSGRGHLGTFEGRWRKLPKMPEAVGTDPSTSRKMAELEEVTLDGKPLQALRVTDLKAALEQRGLAKSGQKSALVKRLKGALMLENLQKHSTPHAAFQPNSQIGEEMSQNSFIKQYLEKQQELLRQRLEREAREAAELEEASAESEDEMIHPEGVASLLPPDFQSSLERPELELSRHSPRKSSSISEEKGDSDDEKPRKGERRSSRVRQARAAKLSEGSQPAEEEEDQETPSRNLRVRADRNLKTEEEEEEEEEEEEDDEEEEGDDEGQKSREAPILKEFKEEGEEIPRVKPEEMMDERPKTRSQEQEVLERGGRFTRSQEEARKSHLARQQQEKEMKTTSPLEEEEREIKSSQGLKEKSKSPSPPRLTEDRKKASLVALPEQTASEEETPPPLLTKEASSPPPHPQLHSEEEIEPMEGPAPAVLIQLSPPNTDADTRELLVSQHTVQLVGGLSPLSSPSDTKAESPAEKVPEESVLPLVQKSTLADYSAQKDLEPESDRSAQPLPLKIEELALAKGITEECLKQPSLEQKEGRRASHTLLPSHRLKQSADSSSSRSSSSSSSSSRSRSRSPDSSGSRSHSPLRSKQRDVAQARTHANPRGRPKMGSRSTSESRSRSRSRSRSASSNSRKSLSPGVSRDSSTSYTETKDPSSGQEVATPPVPQLQVCEPKERTSTSSSSVQARRLSQPESAEKHVTQRLQPERGSPKKCEAEEAEPPAATQPQTSETQTSHLPESERIHHTVEEKEEVTMDTSENRPENDVPEPPMPIADQVSNDDRPEGSVEDEEKKESSLPKSFKRKISVVSATKGVPAGNSDTEGGQPGRKRRWGASTATTQKKPSISITTESLKSLIPDIKPLAGQEAVVDLHADDSRISEDETERNGDDGTHDKGLKICRTVTQVVPAEGQENGQREEEEEEKEPEAEPPVPPQVSVEVALPPPAEHEVKKVTLGDTLTRRSISQQKSGVSITIDDPVRTAQVPSPPRGKISNIVHISNLVRPFTLGQLKELLGRTGTLVEEAFWIDKIKSHCFVTYSTVEEAVATRTALHGVKWPQSNPKFLCADYAEQDELDYHRGLLVDRPSETKTEEQGIPRPLHPPPPPPVQPPQHPRAEQREQERAVREQWAEREREMERRERTRSEREWDRDKVREGPRSRSRSRDRRRKERAKSKEKKSEKKEKAQEEPPAKLLDDLFRKTKAAPCIYWLPLTDSQIVQKEAERAERAKEREKRRKEQEEEEQKEREKEAERERNRQLEREKRREHSRERDRERERERERDRGDRDRDRERDRERGRERDRRDTKRHSRSRSRSTPVRDRGGRR
Consider B1, for which the figures for the binding result in experiment [1] and in experiment [2] were “binds” and “no binding (only with RNase A (2 μg/ml))”, respectively.

B2: TRIM28, Q13263 1-835 (protein)
chain: MAASAAAASAAAASAASGSPGPGEGSAGGEKRSTAPSAAASASASAAASSPAGGGAEALELLEHCGVCRERLRPEREPRLLPCLHSACSACLGPAAPAAANSSGDGGAAGDGTVVDCPVCKQQCFSKDIVENYFMRDSGSKAATDAQDANQCCTSCEDNAPATSYCVECSEPLCETCVEAHQRVKYTKDHTVRSTGPAKSRDGERTVYCNVHKHEPLVLFCESCDTLTCRDCQLNAHKDHQYQFLEDAVRNQRKLLASLVKRLGDKHATLQKSTKEVRSSIRQVSDVQKRVQVDVKMAILQIMKELNKRGRVLVNDAQKVTEGQQERLERQHWTMTKIQKHQEHILRFASWALESDNNTALLLSKKLIYFQLHRALKMIVDPVEPHGEMKFQWDLNAWTKSAEAFGKIVAERPGTNSTGPAPMAPPRAPGPLSKQGSGSSQPMEVQEGYGFGSGDDPYSSAEPHVSGVKRSRSGEGEVSGLMRKVPRVSLERLDLDLTADSQPPVFKVFPGSTTEDYNLIVIERGAAAAATGQPGTAPAGTPGAPPLAGMAIVKEEETEAAIGAPPTATEGPETKPVLMALAEGPGAEGPRLASPSGSTSSGLEVVAPEGTSAPGGGPGTLDDSATICRVCQKPGDLVMCNQCEFCFHLDCHLPALQDVPGEEWSCSLCHVLPDLKEEDGSLSLDGADSTGVVAKLSPANQRKCERVLLALFCHEPCRPLHQLATDSTFSLDQPGGTLDLTLIRARLQEKLSPPYSSPQEFAQDVGRMFKQFNKLTEDKADVQSIIGLQRFFETRMNEAFGDTKFSAVLVEPPPMSLPGAGLSSQELSGGPGDGP
With B2, the binding result in experiment [3] and in experiment [4] was “no binding” in each case.
